Measurements reported in PubChem BioAssay AID1259405 (NCATS, 2018).

Test: 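Mouse-designed siRNAs used to find CHO productivity engineering targets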 (primary screen)
Cells: Chinese hamster CHO-K1 ovary cells with stable secreted eGFP expression
Reagent: single siRNA against mouse genes, 0.8 pmol siRNA per well (2 µl of 400 nM stock)
Timing: 3 days
Read-out: 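Percent of the per-plate non-targeting control median for intracellular GFP per well by laser scanning cytometry and for cell viability by ATP luminescence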
Scale: GFP, % of control: higher = more GFP per well, higher productivity; viability (ATP), % of control: higher = more viable cells (more ATP)
Hit rule: 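Called active when intracellular GFP, relative to negative control, is at or above 120%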
This is one part, drawn at random, of about 50,000 deposited reagents. Of all reagents, about 4,000 (8%) are marked active. 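Mouse siRNA library applied to hamster cells; one well for each siRNA.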 Reagents against one gene are numbered here.

Mmp23 (matrix metallopeptidase 23) #1 scored GFP, % of control 83.8; viability (ATP), % of control 96; inactive.
Mmp23 (matrix metallopeptidase 23) #2 gave GFP, % of control 69; viability (ATP), % of control 54.2; inactive.
For Ms4a7 (membrane-spanning 4-domains, subfamily A, member 7) #1, the values are GFP, % of control 62.4; viability (ATP), % of control 88.1; inactive.
After knock-down of Ms4a7 (membrane-spanning 4-domains, subfamily A, member 7) #2, the screen gave GFP, % of control 183; viability (ATP), % of control 106; active.
After knock-down of Ms4a7 (membrane-spanning 4-domains, subfamily A, member 7) #3, the record shows GFP, % of control 66.1; viability (ATP), % of control 31.1; inactive.
After knock-down of Tkfc (triokinase, FMN cyclase) #1 the results were GFP, % of control 97.8; viability (ATP), % of control 94; inactive.
Tkfc (triokinase, FMN cyclase) #2 showed GFP, % of control 78.5; viability (ATP), % of control 95.9; inactive.
After knock-down of Klk1b27 (kallikrein 1-related peptidase b27) #1 the results were GFP, % of control 140; viability (ATP), % of control 99.8; active.
Klk1b27 (kallikrein 1-related peptidase b27) #2 showed GFP, % of control 82.7; viability (ATP), % of control 60.1; inactive.
For Klk1b27 (kallikrein 1-related peptidase b27) #3, the entry reads GFP, % of control 71.3; viability (ATP), % of control 65.3; inactive.
Against Ccdc120 (coiled-coil domain containing 120) #1, the values are GFP, % of control 79.1; viability (ATP), % of control 75.2; inactive.
With knock-down of Ccdc120 (coiled-coil domain containing 120) #2, the record shows GFP, % of control 38.7; viability (ATP), % of control 33.6; inactive.
For Ccdc120 (coiled-coil domain containing 120) #3 the deposit lists GFP, % of control 65; viability (ATP), % of control 61.2; inactive.
Cip2a #1 scored GFP, % of control 64.6; viability (ATP), % of control 90.1; inactive.
Cip2a #2 scored GFP, % of control 72.1; viability (ATP), % of control 87.5; inactive.
Cip2a #3 gave GFP, % of control 83.3; viability (ATP), % of control 122; inactive.
Against Or2c1 (olfactory receptor family 2 subfamily C member 1) #1, the values are GFP, % of control 94.9; viability (ATP), % of control 67; inactive.
After knock-down of Or2c1 (olfactory receptor family 2 subfamily C member 1) #2, the screen gave GFP, % of control 96.2; viability (ATP), % of control 65.5; inactive.
Knock-down of Or2c1 (olfactory receptor family 2 subfamily C member 1) #3 gave: GFP, % of control 30.8; viability (ATP), % of control 102; inactive.
Sapcd1 (suppressor APC domain containing 1) #1 showed GFP, % of control 40; viability (ATP), % of control 41.7; inactive.
For Sapcd1 (suppressor APC domain containing 1) #2 the deposit lists GFP, % of control 53.9; viability (ATP), % of control 82.4; inactive.
Sapcd1 (suppressor APC domain containing 1) #3 gave GFP, % of control 60.1; viability (ATP), % of control 66.6; inactive.
Alox15 (arachidonate 15-lipoxygenase) #1 scored GFP, % of control 78.3; viability (ATP), % of control 83.7; inactive.
Alox15 (arachidonate 15-lipoxygenase) #2 gave GFP, % of control 93.7; viability (ATP), % of control 82.1; inactive.
With knock-down of Alox15 (arachidonate 15-lipoxygenase) #3, the record shows GFP, % of control 69.6; viability (ATP), % of control 37.5; inactive.
Cpb1 (carboxypeptidase B1) #1 showed GFP, % of control 77; viability (ATP), % of control 63.9; inactive.
Depletion of Cpb1 (carboxypeptidase B1) #2 gave: GFP, % of control 47.8; viability (ATP), % of control 57.2; inactive.
Cpb1 (carboxypeptidase B1) #3 scored GFP, % of control 57.8; viability (ATP), % of control 67.7; inactive.
With knock-down of Ppox (protoporphyrinogen oxidase) #1, the record shows GFP, % of control 109; viability (ATP), % of control 84.7; inactive.
Against Ppox (protoporphyrinogen oxidase) #2, the entry reads GFP, % of control 71.6; viability (ATP), % of control 49.9; inactive.
Ppox (protoporphyrinogen oxidase) #3 gave GFP, % of control 127; viability (ATP), % of control 89.5; active.
Against Fbh1 (F-box DNA helicase 1) #1 the deposit lists GFP, % of control 79.1; viability (ATP), % of control 73.2; inactive.
Against Fbh1 (F-box DNA helicase 1) #2, the entry reads GFP, % of control 89.4; viability (ATP), % of control 68.2; inactive.
Depletion of Fbh1 (F-box DNA helicase 1) #3 gave: GFP, % of control 87.8; viability (ATP), % of control 118; inactive.
Against Rab14 (RAB14, member RAS oncogene family) #1, the values are GFP, % of control 103; viability (ATP), % of control 94.2; inactive.
Silencing of Rab14 (RAB14, member RAS oncogene family) #2 came out at: GFP, % of control 95.2; viability (ATP), % of control 91.4; inactive.
Silencing of Rab14 (RAB14, member RAS oncogene family) #3 resulted in: GFP, % of control 45.4; viability (ATP), % of control 90.4; inactive.
For Mark3 (MAP/microtubule affinity regulating kinase 3) #1, the entry reads GFP, % of control 85.7; viability (ATP), % of control 89.7; inactive.
Mark3 (MAP/microtubule affinity regulating kinase 3) #2 scored GFP, % of control 74.4; viability (ATP), % of control 77; inactive.
Against Ceacam13 (CEA cell adhesion molecule 13) #1, the entry reads GFP, % of control 65.3; viability (ATP), % of control 55.8; inactive.
Knock-down of Ceacam13 (CEA cell adhesion molecule 13) #2 came out at: GFP, % of control 116; viability (ATP), % of control 63.1; inactive.
After knock-down of Ceacam13 (CEA cell adhesion molecule 13) #3 the results were GFP, % of control 88.7; viability (ATP), % of control 72.1; inactive.

Only “GFP, % of control”, for 3 of the entries above:
Ccdc120 (coiled-coil domain containing 120) #1: 79.1
Ccdc120 (coiled-coil domain containing 120) #2: 38.7
Ccdc120 (coiled-coil domain containing 120) #3: 65
